Results published in paper PMC4080449.
Results are given in words; binding and its absence hold for the method and conditions named. In cells and extracts the contact can be indirect.

The chains behind the UniProt entries cited, without tags or fusion partners. Where a name states a change or a piece, a line headed by the entry shows the natural chain unless it says otherwise.
UniProt Q61115: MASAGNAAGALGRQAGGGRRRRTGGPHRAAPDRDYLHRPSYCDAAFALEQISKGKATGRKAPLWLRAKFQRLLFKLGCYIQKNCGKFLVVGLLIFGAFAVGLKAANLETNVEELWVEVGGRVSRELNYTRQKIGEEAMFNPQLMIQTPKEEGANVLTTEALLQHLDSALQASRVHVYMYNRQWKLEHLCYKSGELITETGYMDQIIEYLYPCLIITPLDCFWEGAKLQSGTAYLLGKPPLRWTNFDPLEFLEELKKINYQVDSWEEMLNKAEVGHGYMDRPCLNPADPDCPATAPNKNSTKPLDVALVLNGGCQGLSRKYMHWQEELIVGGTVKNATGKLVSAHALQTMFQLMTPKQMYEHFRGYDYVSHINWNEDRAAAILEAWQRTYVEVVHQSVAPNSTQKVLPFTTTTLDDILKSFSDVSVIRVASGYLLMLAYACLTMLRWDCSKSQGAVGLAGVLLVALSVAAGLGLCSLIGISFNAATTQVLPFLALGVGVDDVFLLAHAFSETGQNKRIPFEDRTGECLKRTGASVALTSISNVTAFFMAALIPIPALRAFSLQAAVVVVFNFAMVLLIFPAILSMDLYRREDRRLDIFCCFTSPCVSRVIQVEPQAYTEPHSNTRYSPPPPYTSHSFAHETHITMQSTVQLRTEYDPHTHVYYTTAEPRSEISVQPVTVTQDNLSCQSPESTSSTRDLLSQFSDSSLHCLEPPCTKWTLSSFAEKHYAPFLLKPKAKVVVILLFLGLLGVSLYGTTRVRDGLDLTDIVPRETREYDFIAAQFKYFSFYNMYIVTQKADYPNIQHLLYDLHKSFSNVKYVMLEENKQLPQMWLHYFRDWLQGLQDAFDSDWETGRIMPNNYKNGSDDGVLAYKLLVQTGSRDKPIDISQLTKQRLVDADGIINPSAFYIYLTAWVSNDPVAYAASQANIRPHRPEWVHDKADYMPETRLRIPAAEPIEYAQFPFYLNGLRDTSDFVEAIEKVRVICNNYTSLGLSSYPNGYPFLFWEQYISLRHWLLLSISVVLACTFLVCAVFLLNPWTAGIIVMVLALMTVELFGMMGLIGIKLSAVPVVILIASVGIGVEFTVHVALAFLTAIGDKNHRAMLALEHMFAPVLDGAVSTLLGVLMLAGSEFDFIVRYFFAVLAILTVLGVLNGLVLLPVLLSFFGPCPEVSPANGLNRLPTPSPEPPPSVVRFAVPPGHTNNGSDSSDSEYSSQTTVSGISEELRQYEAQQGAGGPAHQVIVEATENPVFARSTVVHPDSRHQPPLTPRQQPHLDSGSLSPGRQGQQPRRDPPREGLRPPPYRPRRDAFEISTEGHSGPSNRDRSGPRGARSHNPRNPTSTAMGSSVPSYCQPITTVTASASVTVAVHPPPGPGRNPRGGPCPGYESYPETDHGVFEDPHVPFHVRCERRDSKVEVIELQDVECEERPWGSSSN
UniProt Q9HAU4: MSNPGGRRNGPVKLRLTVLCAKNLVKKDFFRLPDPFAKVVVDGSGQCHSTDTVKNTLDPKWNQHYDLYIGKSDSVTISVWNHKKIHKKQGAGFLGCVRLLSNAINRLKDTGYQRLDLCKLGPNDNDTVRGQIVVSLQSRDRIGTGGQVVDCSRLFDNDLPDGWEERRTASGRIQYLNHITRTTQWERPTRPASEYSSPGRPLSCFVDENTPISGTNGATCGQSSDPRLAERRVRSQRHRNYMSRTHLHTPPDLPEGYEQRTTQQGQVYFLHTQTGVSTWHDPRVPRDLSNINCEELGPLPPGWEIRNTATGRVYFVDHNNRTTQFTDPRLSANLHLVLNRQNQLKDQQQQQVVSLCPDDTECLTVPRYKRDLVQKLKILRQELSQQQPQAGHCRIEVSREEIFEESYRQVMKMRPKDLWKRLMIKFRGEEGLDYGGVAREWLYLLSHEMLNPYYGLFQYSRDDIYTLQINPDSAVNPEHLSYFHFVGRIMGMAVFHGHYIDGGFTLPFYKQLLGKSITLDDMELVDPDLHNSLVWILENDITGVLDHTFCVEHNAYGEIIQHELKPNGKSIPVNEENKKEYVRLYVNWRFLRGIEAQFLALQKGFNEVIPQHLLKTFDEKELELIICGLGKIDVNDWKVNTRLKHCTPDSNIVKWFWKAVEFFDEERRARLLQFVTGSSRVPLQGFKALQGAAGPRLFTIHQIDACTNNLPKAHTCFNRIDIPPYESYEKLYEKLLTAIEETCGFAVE

Target: Δ2PY-CFP (mouse) (UniProt Q61115)
Test: FRET or BRET; CFP/YFP sensitized-emission FRET (N-FRET) by confocal microscopy in transfected MEFs; also with ShhN or control conditioned medium for 2 hr

“Smurf2-YFP (from UniProt Q9HAU4 1-748) (enzyme)” was tested, and the binding was “no binding”.
